From paper doi:10.64898/2025.12.03.692074
Results are given in words; binding and its absence hold for the method and conditions named. Binding seen in cells or lysates may run through a third protein. Some entries that bind do so weakly or less than the wild type.

Biological target: FLAG-miP-FERMT3 (human)
Experiment: co-IP

B1: 26S proteasome non-ATPase regulatory subunit 9 (PSMD9) (protein, UniProt O00233 1-223)
chain: MSDEEARQSGGSSQAGVVTVSDVQELMRRKEEIEAQIKANYDVLESQKGIGMNEPLVDCEGYPRSDVDLYQVRTARHNIICLQNDHKAVMKQVEEALHQLHARDKEKQARDMAEAHKEAMSRKLGQSESQGPPRAFAKVNSISPGSPASIAGLQVDDEIVEFGSVNTQNFQSLHNIGSVVQHSEGKPLNVTVIRRGEKHQLRLVPTRWAGKGLLGCNIIPLQR
B1 was tested, and the binding was “binds”.

B2: TRIM8 (protein, UniProt Q9BZR9 1-551)
chain: MAENWKNCFEEELICPICLHVFVEPVQLPCKHNFCRGCIGEAWAKDSGLVRCPECNQAYNQKPGLEKNLKLTNIVEKFNALHVEKPPAALHCVFCRRGPPLPAQKVCLRCEAPCCQSHVQTHLQQPSTARGHLLVEADDVRAWSCPQHNAYRLYHCEAEQVAVCQYCCYYSGAHQGHSVCDVEIRRNEIRKMLMKQQDRLEEREQDIEDQLYKLESDKRLVEEKVNQLKEEVRLQYEKLHQLLDEDLRQTVEVLDKAQAKFCSENAAQALHLGERMQEAKKLLGSLQLLFDKTEDVSFMKNTKSVKILMDRTQTCTSSSLSPTKIGHLNSKLFLNEVAKKEKQLRKMLEGPFSTPVPFLQSVPLYPCGVSSSGAEKRKHSTAFPEASFLETSSGPVGGQYGAAGTASGEGQSGQPLGPCSSTQHLVALPGGAQPVHSSPVFPPSQYPNGSAAQQPMLPQYGGRKILVCSVDNCYCSSVANHGGHQPYPRSGHFPWTVPSQEYSHPLPPTPSVPQSLPSLAVRDWLDASQQPGHQDFYRVYGQPSTKHYVTS
In the case of B2, the binding is reported as “binds”.
